Tested on: PRC2 core (EZH2-EED-SUZ12-RBBP4) (Homo sapiens)
Assay: fluorescence anisotropy
Settings: 50 mM Tris-HCl pH 7.5 (25 C), 100 mM KCl, 2 mM 2-mercaptoethanol, 0.1 mg/mL BSA, 0.05% NP-40; FA at 30 C; recombinant protein; protein details: His6-MBP (PreScission-cleavable); label: 3'-fluorescein; folded or branched DNA

In the case of “GGCGCCCTGCCCCGCCTCGCTCTGGCAGAGTGGGGAGCCAGCCGGCGCTAGCCGGCTGGCTCCCCACTCTGCCAGAGCGAGGCGGGGCAGGGCGCC [CpG46]”, the Kd is reported as over 4 µM.
